Measured values: publication doi:10.1101/2025.09.10.672744
These are yes or no findings as the source states them, for the method shown. Binding seen in cells or lysates may run through a third protein. Some results given as binding are weak or reduced against the parent protein; the word gives no strength. Sequences can lack the tags named with a protein.

By UniProt entry, the sequences of proteins in these tests, tags left out.
UniProt P49040: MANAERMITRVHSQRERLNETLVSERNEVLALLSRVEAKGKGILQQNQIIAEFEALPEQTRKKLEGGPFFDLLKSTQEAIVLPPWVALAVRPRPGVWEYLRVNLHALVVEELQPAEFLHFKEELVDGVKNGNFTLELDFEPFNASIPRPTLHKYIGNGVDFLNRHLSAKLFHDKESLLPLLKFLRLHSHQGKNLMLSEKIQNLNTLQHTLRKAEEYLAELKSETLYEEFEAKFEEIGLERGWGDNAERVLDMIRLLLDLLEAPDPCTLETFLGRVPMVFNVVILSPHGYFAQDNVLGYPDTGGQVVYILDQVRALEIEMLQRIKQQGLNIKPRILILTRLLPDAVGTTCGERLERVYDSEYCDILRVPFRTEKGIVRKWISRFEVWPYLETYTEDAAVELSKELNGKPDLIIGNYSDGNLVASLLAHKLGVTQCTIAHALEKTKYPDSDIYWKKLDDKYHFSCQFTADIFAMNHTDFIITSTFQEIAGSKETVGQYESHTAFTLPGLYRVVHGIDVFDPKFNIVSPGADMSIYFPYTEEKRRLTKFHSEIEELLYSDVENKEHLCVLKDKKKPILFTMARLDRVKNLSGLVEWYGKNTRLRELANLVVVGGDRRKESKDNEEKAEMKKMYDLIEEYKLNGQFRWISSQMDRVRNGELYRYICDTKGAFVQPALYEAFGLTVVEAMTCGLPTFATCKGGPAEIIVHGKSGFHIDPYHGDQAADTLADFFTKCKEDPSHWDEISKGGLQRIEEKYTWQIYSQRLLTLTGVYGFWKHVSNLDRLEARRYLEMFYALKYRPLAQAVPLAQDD
UniProt Q9FX32: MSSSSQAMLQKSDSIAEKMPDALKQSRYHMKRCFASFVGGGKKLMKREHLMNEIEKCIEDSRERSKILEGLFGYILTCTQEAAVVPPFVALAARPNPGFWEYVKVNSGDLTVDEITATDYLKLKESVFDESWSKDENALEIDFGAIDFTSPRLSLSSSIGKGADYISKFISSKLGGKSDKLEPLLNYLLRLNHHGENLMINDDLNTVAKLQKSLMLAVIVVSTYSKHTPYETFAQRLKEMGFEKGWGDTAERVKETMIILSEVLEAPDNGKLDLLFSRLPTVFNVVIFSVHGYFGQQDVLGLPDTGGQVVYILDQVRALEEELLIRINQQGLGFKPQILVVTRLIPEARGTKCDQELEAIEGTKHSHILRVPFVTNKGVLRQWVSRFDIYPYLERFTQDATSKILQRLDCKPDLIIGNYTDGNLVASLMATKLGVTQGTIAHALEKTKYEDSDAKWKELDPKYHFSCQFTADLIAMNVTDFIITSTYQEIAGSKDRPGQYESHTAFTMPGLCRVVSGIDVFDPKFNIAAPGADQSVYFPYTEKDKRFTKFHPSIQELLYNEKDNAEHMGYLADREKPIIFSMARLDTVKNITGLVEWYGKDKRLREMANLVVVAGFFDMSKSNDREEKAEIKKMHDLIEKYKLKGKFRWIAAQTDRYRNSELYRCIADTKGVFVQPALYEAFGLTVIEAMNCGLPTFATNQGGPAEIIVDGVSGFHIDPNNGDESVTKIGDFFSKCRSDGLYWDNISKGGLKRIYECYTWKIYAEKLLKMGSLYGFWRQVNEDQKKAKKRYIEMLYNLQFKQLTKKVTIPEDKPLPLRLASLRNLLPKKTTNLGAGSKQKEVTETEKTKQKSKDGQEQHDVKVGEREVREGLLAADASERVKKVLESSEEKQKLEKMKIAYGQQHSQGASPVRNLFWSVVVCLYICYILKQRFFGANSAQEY
UniProt Q9M111: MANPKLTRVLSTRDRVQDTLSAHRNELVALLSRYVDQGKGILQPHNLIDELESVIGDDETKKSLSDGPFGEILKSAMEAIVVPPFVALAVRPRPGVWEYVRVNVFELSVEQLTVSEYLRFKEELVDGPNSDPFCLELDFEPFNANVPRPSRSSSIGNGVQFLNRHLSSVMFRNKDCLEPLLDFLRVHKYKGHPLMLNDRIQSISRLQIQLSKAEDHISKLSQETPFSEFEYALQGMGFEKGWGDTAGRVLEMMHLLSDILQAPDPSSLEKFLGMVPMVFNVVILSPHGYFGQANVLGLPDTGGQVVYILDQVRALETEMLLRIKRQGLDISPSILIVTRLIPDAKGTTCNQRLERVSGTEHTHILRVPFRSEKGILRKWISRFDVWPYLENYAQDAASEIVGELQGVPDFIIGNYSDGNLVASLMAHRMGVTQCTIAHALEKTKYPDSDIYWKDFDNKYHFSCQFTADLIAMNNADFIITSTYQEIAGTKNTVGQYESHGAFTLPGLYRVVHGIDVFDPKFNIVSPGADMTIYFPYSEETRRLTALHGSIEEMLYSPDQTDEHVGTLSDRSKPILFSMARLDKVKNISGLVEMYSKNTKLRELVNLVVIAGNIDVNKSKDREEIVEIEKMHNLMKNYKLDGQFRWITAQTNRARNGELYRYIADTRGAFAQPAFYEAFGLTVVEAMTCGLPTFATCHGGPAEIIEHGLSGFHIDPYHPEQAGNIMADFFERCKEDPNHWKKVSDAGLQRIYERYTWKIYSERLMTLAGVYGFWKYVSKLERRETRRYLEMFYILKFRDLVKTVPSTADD
UniProt Q9LXL5: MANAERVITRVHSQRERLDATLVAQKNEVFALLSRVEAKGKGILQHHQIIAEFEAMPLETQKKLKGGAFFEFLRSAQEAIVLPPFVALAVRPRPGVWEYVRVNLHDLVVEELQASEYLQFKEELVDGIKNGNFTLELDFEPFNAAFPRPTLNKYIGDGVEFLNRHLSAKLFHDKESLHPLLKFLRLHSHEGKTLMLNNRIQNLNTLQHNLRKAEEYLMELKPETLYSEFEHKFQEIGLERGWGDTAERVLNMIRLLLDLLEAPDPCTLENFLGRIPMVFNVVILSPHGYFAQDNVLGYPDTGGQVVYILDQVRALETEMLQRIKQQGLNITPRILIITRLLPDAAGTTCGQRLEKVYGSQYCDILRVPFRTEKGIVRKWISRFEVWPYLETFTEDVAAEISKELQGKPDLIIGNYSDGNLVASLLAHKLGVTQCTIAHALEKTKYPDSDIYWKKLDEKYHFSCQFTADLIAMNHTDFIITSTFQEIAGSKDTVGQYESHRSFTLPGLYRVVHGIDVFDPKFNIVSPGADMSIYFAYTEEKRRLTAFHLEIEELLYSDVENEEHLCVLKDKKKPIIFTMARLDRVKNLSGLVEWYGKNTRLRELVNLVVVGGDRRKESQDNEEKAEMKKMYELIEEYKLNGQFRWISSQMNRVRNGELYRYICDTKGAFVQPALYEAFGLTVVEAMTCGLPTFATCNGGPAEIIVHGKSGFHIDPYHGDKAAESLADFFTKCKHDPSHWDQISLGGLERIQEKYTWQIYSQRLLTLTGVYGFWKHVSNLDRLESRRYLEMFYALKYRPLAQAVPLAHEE

Experiments:
Assay in all cases: split reporter
[1] = molecular target: T1, RGS1-nYFP (Arabidopsis thaliana) (UniProt Q8H1F2)
T1 sequence: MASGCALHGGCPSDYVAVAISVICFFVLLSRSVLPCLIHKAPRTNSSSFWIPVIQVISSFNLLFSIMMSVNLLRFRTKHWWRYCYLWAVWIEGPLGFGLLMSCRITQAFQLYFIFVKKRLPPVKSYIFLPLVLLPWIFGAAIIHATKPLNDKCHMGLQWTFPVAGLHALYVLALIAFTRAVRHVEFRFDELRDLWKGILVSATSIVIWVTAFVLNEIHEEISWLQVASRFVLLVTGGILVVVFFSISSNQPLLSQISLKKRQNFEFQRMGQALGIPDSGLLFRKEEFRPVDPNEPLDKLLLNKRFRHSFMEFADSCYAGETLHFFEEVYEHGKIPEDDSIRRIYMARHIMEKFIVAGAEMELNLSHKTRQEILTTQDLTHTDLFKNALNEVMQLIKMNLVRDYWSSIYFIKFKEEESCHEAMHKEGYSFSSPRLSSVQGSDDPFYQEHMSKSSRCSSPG

[2] = molecular target: T2, RGS1-nLUC (Arabidopsis thaliana) (UniProt Q8H1F2)
T2 sequence: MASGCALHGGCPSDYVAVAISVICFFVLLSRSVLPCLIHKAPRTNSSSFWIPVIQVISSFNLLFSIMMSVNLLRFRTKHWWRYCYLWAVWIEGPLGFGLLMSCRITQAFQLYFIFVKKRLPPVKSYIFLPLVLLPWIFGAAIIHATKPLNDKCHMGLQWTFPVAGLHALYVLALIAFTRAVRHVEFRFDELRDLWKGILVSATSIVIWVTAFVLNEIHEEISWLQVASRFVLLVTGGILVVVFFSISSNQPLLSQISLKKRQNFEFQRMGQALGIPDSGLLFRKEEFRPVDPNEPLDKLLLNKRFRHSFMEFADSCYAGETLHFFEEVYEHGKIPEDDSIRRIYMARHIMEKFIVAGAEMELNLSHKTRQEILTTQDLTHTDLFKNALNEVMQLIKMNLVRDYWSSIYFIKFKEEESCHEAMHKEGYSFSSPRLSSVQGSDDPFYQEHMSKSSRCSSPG

[3] = molecular target: T3, RGS1-HiBiT-nLUC (wild type) (Arabidopsis thaliana) (UniProt Q8H1F2)
T3 sequence: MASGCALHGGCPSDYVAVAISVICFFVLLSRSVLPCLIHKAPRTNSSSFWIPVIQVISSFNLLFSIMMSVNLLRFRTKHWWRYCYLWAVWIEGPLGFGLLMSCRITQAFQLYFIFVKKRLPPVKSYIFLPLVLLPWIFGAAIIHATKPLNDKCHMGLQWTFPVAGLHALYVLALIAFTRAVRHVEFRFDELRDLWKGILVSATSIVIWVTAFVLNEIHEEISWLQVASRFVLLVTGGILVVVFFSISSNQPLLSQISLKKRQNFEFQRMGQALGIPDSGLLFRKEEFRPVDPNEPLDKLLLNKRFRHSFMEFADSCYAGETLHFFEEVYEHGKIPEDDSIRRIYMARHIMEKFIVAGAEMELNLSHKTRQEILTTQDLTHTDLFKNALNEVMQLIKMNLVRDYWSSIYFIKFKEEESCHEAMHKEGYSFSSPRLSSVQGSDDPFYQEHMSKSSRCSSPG

[4] = molecular target: T4, AGB1-nLUC (AGG1) (Arabidopsis thaliana) (UniProt P49177+Q9FDX9)
T4 sequence 1: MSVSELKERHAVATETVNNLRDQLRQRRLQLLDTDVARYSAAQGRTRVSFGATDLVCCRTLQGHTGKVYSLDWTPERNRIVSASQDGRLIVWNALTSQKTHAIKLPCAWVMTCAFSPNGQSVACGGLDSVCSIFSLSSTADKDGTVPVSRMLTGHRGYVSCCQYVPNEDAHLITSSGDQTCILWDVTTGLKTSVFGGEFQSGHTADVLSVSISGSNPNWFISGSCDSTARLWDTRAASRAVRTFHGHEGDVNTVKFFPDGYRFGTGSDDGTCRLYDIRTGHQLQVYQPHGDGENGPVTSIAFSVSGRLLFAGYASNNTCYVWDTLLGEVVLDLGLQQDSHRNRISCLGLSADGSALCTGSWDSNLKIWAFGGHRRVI
T4 sequence 2: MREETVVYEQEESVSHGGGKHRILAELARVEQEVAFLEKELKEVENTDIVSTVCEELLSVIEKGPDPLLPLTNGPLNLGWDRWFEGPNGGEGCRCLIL

Molecule | binding [1] | binding [2] | binding [3] | binding [4]
cYFP-HA-tagged SUS1 (from UniProt P49040 1-808) (enzyme) | binds |  |  | 
cLUC-SUS6 (from UniProt Q9FX32 1-942) (enzyme) |  | no binding |  | 
cLUC-SUS3 (from UniProt Q9M111 1-809) (enzyme) |  | binds |  | 
cLUC-SUS4 (from UniProt Q9LXL5 1-808) (enzyme) |  | binds |  | 
cLUC-SUS1 (from UniProt P49040 1-808) (enzyme) |  | binds | binds | 
cYFP-HA-tagged GPA1 (protein, UniProt P18064 1-383) MGLLCSRSRHHTEDTDENTQAAEIERRIEQEAKAEKHIRKLLLLGAGESGKSTIFKQIKLLFQTGFDEGELKSYVPVIHANVYQTIKLLHDGTKEFAQNETDSAKYMLSSESIAIGEKLSEIGGRLDYPRLTKDIAEGIETLWKDPAIQETCARGNELQVPDCTKYLMENLKRLSDINYIPTKEDVLYARVRTTGVVEIQFSPVGENKKSGEVYRLFDVGGQRNERRKWIHLFEGVTAVIFCAAISEYDQTLFEDEQKNRMMETKELFDWVLKQPCFEKTSFMLFLNKFDIFEKKVLDVPLNVCEWFRDYQPVSSGKQEIEHAYEFVKKKFEELYYQNTAPDRVDRVFKIYRTTALDQKLVKKTFKLVDETLRRRNLLEAGLL | binds |  |  | 
cYFP-HA-tagged AGB1 (AGG1) (complex, UniProt P49177 1-377; Q9FDX9 1-98) chain 1: MSVSELKERHAVATETVNNLRDQLRQRRLQLLDTDVARYSAAQGRTRVSFGATDLVCCRTLQGHTGKVYSLDWTPERNRIVSASQDGRLIVWNALTSQKTHAIKLPCAWVMTCAFSPNGQSVACGGLDSVCSIFSLSSTADKDGTVPVSRMLTGHRGYVSCCQYVPNEDAHLITSSGDQTCILWDVTTGLKTSVFGGEFQSGHTADVLSVSISGSNPNWFISGSCDSTARLWDTRAASRAVRTFHGHEGDVNTVKFFPDGYRFGTGSDDGTCRLYDIRTGHQLQVYQPHGDGENGPVTSIAFSVSGRLLFAGYASNNTCYVWDTLLGEVVLDLGLQQDSHRNRISCLGLSADGSALCTGSWDSNLKIWAFGGHRRVI chain 2: MREETVVYEQEESVSHGGGKHRILAELARVEQEVAFLEKELKEVENTDIVSTVCEELLSVIEKGPDPLLPLTNGPLNLGWDRWFEGPNGGEGCRCLIL | binds |  |  | 
cLUC-GPA1 (protein, UniProt P18064 1-383) MGLLCSRSRHHTEDTDENTQAAEIERRIEQEAKAEKHIRKLLLLGAGESGKSTIFKQIKLLFQTGFDEGELKSYVPVIHANVYQTIKLLHDGTKEFAQNETDSAKYMLSSESIAIGEKLSEIGGRLDYPRLTKDIAEGIETLWKDPAIQETCARGNELQVPDCTKYLMENLKRLSDINYIPTKEDVLYARVRTTGVVEIQFSPVGENKKSGEVYRLFDVGGQRNERRKWIHLFEGVTAVIFCAAISEYDQTLFEDEQKNRMMETKELFDWVLKQPCFEKTSFMLFLNKFDIFEKKVLDVPLNVCEWFRDYQPVSSGKQEIEHAYEFVKKKFEELYYQNTAPDRVDRVFKIYRTTALDQKLVKKTFKLVDETLRRRNLLEAGLL |  | binds | binds | binds
cLUC-AGB1 (AGG1) (complex, UniProt P49177 1-377; Q9FDX9 1-98) chain 1: MSVSELKERHAVATETVNNLRDQLRQRRLQLLDTDVARYSAAQGRTRVSFGATDLVCCRTLQGHTGKVYSLDWTPERNRIVSASQDGRLIVWNALTSQKTHAIKLPCAWVMTCAFSPNGQSVACGGLDSVCSIFSLSSTADKDGTVPVSRMLTGHRGYVSCCQYVPNEDAHLITSSGDQTCILWDVTTGLKTSVFGGEFQSGHTADVLSVSISGSNPNWFISGSCDSTARLWDTRAASRAVRTFHGHEGDVNTVKFFPDGYRFGTGSDDGTCRLYDIRTGHQLQVYQPHGDGENGPVTSIAFSVSGRLLFAGYASNNTCYVWDTLLGEVVLDLGLQQDSHRNRISCLGLSADGSALCTGSWDSNLKIWAFGGHRRVI chain 2: MREETVVYEQEESVSHGGGKHRILAELARVEQEVAFLEKELKEVENTDIVSTVCEELLSVIEKGPDPLLPLTNGPLNLGWDRWFEGPNGGEGCRCLIL |  | binds | binds | 
RGS1-nLUC (protein, UniProt Q8H1F2 1-459) MASGCALHGGCPSDYVAVAISVICFFVLLSRSVLPCLIHKAPRTNSSSFWIPVIQVISSFNLLFSIMMSVNLLRFRTKHWWRYCYLWAVWIEGPLGFGLLMSCRITQAFQLYFIFVKKRLPPVKSYIFLPLVLLPWIFGAAIIHATKPLNDKCHMGLQWTFPVAGLHALYVLALIAFTRAVRHVEFRFDELRDLWKGILVSATSIVIWVTAFVLNEIHEEISWLQVASRFVLLVTGGILVVVFFSISSNQPLLSQISLKKRQNFEFQRMGQALGIPDSGLLFRKEEFRPVDPNEPLDKLLLNKRFRHSFMEFADSCYAGETLHFFEEVYEHGKIPEDDSIRRIYMARHIMEKFIVAGAEMELNLSHKTRQEILTTQDLTHTDLFKNALNEVMQLIKMNLVRDYWSSIYFIKFKEEESCHEAMHKEGYSFSSPRLSSVQGSDDPFYQEHMSKSSRCSSPG |  | binds |  | 
